Laboratory results from patent US20100330094A1.
These are yes or no findings as the source states them, for the method shown. Some binding calls cover weakened binding; strength is not graded here.

Assays:
[1] = molecular target: NusA-cynomolgus IP-10 fusion protein (cynomolgus); test: capture ELISA: NI-0801 coated, NusA fusion protein in a concentration range, anti-NusA detection (FIG. 7)
[2] = molecular target: NusA-cynomolgus IP-10 fusion protein (cynomolgus); test: capture ELISA: NI-0801 coated, concentration range of NusA fusion protein, revealed with anti-NusA antibody
[3] = molecular target: NusA-cynomolgus IP-10 fusion protein (cynomolgus); test: capture ELISA: NI-0801 coated, NusA fusion protein in a concentration range, anti-NusA detection

Measured: binding

B1: NI-0801, IgG1 format (antibody, V domains shown)
VH: QVQLVESGGGVVQPGRSLRLSCAASGFTFSNSGIHWVRQAPGKGLEWVAVISYDGSNKYYADSVKGRFTISRDNSKNTLYLQMNSLRAEDTAVYYCARLRDNAEYTDYWGQGTLVTVSS
VL: NFMLTQPHSVSESPGKTVTISCTGSGGSIASNYVQWYQQRPGSSPTTVIYEDNQRPSGVPDRFSGSIDSSSNSASLTISGLKTEDEADYYCQSYDPLPVWVFGGGTKLTVLG
binds: all assays above
